The other results are listed elsewhere or left out.
Each target was assayed with C#Cc1cccc(Nc2ncnc3cc(OCCOC)c(OCCOC)cc23)c1 [erlotinib] (assay: log2 fold change, soluble protein after heating vs DMSO (PISA); higher = thermal stabilisation; K562 lysate, 10 uM; active = over 0.2 and 3.5 SD of the protein, either way, in both replicates (recomputed)).
Summary of the method: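 Log-two fold change in thermal stability relative to solvent controls is reported from duplicates. For each sample, crude K562 extract from dounce-homogenised pellets in PBS pH 7.4 with 1 mM MgCl2, at 1 mg/mL protein, was treated with 10 μM compound for 30 min. Aliquots heated for 3 min across 48°C-58°C were pooled, brought to 0.5% NP-40 at 4°C and cleared at 21,000xg for 90 min. The supernatant was quantified by TMTpro 16plex LC-MS/MS with channel sums equalised.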

Amino acid sequences for entries named in this document (tags omitted). A change or cut given only in a name is not applied to a line headed by its entry.
UniProt Q06413, whole entry, looked up: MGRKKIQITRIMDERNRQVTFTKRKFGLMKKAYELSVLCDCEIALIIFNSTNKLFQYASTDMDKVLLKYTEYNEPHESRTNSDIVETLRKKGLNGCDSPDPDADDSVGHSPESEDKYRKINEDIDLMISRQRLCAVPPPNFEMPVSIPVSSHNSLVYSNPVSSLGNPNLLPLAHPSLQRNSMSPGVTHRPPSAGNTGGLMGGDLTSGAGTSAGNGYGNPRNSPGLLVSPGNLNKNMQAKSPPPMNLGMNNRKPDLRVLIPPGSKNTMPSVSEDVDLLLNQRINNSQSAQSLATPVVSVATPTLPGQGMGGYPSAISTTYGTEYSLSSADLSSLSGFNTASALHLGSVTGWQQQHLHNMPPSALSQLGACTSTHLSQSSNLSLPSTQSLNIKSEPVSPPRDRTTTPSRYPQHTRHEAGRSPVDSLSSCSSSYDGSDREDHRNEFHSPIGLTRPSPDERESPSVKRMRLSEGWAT
UniProt P33991: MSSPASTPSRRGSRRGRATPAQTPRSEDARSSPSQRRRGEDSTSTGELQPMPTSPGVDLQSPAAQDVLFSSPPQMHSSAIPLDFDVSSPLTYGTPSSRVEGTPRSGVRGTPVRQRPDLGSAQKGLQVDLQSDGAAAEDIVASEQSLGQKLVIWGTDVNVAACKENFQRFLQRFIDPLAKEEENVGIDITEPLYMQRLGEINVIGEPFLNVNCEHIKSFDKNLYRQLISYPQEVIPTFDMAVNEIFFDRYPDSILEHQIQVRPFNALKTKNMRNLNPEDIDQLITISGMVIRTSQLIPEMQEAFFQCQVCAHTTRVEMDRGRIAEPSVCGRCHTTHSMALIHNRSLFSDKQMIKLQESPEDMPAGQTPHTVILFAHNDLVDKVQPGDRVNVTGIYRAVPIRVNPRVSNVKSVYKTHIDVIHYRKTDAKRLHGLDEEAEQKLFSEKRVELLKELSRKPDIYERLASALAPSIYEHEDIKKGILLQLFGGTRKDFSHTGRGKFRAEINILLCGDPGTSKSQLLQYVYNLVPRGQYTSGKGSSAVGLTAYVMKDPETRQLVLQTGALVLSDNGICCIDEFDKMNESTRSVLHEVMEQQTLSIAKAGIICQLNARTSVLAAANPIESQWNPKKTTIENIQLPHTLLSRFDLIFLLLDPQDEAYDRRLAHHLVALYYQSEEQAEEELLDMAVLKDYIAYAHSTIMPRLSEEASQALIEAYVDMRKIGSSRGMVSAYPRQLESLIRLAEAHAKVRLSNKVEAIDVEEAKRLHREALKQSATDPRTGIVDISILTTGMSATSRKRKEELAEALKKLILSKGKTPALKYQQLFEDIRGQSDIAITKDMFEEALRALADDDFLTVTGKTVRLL
UniProt Q14696: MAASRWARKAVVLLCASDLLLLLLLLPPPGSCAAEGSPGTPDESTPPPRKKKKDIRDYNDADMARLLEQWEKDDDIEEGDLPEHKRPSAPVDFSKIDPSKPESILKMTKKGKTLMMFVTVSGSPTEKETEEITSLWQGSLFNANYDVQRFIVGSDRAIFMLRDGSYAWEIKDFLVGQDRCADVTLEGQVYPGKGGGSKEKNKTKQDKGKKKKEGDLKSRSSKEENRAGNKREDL
UniProt Q9H944: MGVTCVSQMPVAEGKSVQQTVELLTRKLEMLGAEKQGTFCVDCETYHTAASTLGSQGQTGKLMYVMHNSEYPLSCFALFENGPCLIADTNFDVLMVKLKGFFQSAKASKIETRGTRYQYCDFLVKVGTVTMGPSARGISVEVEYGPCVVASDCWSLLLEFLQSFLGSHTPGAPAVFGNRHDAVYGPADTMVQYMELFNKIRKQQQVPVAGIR
UniProt Q6ZWT7: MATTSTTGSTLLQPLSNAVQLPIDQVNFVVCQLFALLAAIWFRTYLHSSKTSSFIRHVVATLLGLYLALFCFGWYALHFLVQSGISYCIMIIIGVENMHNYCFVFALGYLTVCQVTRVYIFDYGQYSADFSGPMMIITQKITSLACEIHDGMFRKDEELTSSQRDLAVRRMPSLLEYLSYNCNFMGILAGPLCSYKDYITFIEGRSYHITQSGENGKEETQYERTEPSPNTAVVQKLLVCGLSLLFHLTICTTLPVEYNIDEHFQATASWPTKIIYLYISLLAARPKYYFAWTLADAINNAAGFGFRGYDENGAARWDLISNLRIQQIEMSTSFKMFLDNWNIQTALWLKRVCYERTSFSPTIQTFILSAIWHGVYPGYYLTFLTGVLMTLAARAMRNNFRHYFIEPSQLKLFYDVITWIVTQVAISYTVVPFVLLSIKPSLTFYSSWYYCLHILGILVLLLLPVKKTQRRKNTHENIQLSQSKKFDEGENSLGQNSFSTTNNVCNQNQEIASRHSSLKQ
UniProt O60244: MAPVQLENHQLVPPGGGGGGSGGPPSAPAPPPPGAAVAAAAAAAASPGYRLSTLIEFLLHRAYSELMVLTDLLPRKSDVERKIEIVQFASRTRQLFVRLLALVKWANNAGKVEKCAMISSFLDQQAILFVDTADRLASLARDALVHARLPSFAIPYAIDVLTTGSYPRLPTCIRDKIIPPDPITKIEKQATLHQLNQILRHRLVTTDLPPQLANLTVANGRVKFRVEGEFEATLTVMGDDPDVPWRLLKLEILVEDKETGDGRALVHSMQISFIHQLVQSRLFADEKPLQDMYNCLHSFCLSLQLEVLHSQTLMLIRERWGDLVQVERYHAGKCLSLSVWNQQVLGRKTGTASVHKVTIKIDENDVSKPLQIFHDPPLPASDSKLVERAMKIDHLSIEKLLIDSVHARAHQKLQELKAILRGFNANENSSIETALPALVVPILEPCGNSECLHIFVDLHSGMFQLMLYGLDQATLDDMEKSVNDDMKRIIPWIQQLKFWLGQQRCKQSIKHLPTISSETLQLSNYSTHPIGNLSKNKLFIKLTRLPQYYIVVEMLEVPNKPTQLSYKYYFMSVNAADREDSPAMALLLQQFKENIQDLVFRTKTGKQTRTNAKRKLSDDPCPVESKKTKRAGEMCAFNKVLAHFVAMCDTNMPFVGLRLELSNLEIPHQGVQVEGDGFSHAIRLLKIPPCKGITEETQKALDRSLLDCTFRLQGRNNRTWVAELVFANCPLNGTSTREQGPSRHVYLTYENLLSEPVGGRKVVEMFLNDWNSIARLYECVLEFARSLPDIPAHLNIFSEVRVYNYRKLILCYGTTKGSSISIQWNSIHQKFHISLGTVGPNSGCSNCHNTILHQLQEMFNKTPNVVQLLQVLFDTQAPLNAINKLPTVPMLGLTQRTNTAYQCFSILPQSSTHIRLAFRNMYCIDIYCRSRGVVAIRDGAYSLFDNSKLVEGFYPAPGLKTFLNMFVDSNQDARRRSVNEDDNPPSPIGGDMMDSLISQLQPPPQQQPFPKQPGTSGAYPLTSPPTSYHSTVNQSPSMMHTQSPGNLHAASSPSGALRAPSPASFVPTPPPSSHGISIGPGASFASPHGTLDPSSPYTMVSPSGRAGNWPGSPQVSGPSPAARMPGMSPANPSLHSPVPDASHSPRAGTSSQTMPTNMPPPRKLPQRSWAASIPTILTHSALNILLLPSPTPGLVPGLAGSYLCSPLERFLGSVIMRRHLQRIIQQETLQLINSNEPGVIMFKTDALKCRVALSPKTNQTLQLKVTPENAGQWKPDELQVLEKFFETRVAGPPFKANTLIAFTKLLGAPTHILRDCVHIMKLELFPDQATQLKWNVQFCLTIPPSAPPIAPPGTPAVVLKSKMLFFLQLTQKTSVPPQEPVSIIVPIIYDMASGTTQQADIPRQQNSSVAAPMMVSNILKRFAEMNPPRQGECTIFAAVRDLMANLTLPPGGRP
UniProt Q08431: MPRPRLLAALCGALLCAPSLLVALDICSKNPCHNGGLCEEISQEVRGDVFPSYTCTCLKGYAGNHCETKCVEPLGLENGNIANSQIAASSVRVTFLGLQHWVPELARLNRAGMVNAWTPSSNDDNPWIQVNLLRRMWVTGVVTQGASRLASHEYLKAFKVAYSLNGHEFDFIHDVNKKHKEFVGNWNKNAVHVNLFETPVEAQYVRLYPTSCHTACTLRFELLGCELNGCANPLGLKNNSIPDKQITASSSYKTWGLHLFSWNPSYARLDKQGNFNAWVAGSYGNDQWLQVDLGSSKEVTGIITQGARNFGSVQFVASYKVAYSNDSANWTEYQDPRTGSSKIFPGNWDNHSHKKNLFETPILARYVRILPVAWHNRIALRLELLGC
UniProt P48163: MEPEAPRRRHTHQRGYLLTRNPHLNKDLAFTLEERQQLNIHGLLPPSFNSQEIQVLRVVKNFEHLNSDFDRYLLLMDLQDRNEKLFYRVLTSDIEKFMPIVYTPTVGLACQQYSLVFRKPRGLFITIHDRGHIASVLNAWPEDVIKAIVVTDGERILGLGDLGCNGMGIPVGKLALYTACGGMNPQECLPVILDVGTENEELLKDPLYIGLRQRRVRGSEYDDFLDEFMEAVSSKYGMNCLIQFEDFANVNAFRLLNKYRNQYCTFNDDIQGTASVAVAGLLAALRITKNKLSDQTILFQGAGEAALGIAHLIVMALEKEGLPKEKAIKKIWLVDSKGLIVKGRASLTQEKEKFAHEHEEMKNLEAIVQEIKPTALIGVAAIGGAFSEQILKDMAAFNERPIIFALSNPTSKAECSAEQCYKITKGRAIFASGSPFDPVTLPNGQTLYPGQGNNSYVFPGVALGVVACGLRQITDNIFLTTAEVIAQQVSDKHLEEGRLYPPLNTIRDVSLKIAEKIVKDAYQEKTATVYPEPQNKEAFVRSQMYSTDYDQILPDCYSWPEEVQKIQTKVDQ
UniProt Q96RN5: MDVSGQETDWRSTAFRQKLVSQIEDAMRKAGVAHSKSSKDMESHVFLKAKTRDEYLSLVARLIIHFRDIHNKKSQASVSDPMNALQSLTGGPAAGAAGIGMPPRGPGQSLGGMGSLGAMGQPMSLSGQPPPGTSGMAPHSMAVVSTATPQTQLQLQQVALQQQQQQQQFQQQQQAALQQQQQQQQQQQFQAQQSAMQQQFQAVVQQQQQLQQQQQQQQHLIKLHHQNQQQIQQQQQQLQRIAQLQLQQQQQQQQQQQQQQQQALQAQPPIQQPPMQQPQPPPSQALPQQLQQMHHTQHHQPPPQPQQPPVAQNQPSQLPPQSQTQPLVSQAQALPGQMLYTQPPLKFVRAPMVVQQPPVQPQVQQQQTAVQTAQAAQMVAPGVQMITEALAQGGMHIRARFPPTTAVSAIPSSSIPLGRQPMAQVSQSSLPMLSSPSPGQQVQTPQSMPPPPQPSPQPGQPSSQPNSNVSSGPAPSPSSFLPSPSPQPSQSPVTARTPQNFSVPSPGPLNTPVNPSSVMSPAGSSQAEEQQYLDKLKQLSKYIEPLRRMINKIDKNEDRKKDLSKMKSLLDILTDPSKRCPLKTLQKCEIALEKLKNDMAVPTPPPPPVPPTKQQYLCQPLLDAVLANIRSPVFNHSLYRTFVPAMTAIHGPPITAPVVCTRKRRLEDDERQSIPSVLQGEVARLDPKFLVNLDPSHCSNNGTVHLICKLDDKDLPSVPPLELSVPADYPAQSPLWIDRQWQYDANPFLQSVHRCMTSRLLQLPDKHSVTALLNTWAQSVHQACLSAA
UniProt O43513: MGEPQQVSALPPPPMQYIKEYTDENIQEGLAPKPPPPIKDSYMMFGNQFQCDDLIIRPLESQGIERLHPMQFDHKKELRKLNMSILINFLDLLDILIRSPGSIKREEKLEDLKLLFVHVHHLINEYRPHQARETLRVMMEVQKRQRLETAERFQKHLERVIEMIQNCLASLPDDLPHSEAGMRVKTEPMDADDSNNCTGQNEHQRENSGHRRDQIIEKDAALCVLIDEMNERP
UniProt Q9NVC6: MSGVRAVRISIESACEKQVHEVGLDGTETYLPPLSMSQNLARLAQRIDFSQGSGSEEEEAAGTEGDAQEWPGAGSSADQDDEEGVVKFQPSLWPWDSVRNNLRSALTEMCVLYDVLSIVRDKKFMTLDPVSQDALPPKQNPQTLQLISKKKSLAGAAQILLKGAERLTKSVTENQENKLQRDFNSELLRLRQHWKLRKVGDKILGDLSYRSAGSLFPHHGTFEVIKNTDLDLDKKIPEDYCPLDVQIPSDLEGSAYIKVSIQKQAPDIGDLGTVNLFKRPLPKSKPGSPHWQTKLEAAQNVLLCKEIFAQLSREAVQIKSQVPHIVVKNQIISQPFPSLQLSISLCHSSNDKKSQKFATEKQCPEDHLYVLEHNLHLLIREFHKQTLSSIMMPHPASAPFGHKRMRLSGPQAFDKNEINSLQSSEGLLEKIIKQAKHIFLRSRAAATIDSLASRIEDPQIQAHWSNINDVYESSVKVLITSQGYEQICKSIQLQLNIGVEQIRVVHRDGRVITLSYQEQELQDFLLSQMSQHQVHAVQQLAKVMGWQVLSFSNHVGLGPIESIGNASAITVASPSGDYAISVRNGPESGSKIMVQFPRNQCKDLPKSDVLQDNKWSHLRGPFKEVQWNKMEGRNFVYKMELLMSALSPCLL
UniProt Q96HR3: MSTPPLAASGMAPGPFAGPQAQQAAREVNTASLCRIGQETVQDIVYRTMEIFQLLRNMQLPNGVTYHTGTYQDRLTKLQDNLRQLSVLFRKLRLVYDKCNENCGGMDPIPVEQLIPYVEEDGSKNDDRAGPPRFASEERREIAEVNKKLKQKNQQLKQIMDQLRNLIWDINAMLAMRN

log2 fold change, inactive:
METTL16 (UniProt Q86W50) -0.023
MEX3D isoform 3 (UniProt Q86XN8) -0.115
MED4 (UniProt Q9NPJ6) -0.016
MEF2C isoform 5 (UniProt Q06413) -0.174
MED22 isoform 2 (UniProt Q15528) 0.016
MFSD10 (UniProt Q14728) -0.06
MDH1 isoform 3 (UniProt P40925) -0.001
MCM4 (UniProt P33991) 0.022
METTL2A (UniProt Q96IZ6) 0.023
MED8 isoform 2 (UniProt Q96G25) 0.017
MCFD2 (UniProt Q8NI22) 0.251
MESD (UniProt Q14696) -0.01
METTL7A (UniProt Q9H8H3) 0.029
MED20 (UniProt Q9H944) -0.008
MEF2D (UniProt Q14814) -0.041
MCU (UniProt Q8NE86) 0.045
MAZ isoform 2 (UniProt P56270) -0.017
MBOAT2 (UniProt Q6ZWT7) -0.003
MDN1 (UniProt Q9NU22) -0.029
MFN2 (UniProt O95140) 0.055
MED14 (UniProt O60244) -0.012
MFGE8 (UniProt Q08431) -0.012
ME1 (UniProt P48163) 0
MFN1 (UniProt Q8IWA4) 0.016
METAP1 (UniProt P53582) 0.006
MED13L (UniProt Q71F56) 0.048
MCM5 (UniProt P33992) -0.016
MED15 (UniProt Q96RN5) 0.005
MED7 (UniProt O43513) 0.071
MED12 isoform 2 (UniProt Q93074) 0.007
METAP2 (UniProt P50579) 0
MBNL1 (UniProt C9JP00) 0.034
MED13 (UniProt Q9UHV7) -0.034
MED26 (UniProt O95402) -0.041
MED1 (UniProt Q15648) -0.011
MED17 (UniProt Q9NVC6) -0.017
MED30 (UniProt Q96HR3) 0.036
MFSD1 isoform 6 (UniProt Q9H3U5) -0.094

A stretch of the results above:
log2 fold change, inactive:
MDH1 isoform 3 (UniProt P40925) -0.001
MCM4 (UniProt P33991) 0.022

Source: the supplement of paper PMC10849652
